Data from paper PMC11449006.
These are yes or no findings as the source states them, for the method shown. Binding seen in cells or lysates may run through a third protein. These calls come from enrichment with a bait or labelling near it, and not all partners need be listed. No binding means not detected with the bait.

Molecular target: CEPA1-FLAG (Arabidopsis thaliana)
Assay: affinity purification with mass spectrometry; anti-FLAG M2 magnetic beads; thylakoid membranes of cepa1-3-C1 (CEPA1-FLAG) and WT (control) solubilised in 1% (w/v) β-DM in 25BTH20G buffer pH 7.0, 2 h at 4 °C; eluates by LC-MS/MS, MaxLFQ; enriched if at least 2-fold over the WT IP with P < 0.05, three replicates

| binding | Binder |
| --- | --- |
| no binding | RIBOSOMAL PROTEIN L12-C (RPL12-C) (protein, UniProt P36212 55-187) AVEAPEKIEKIGSEISSLTLEEARILVDYLQDKFGVSPLSLAPAAAAVAAPADGGAAAVVEEQTEFDVVINEVPSSSRIAVIKAVRALTSLALKEAKELIEGLPKKFKEGITKDEAEEAKKTLEEAGAKVSIA |
| binds | PHOTOSYSTEM I ASSEMBLY3 (PSA3) (protein, UniProt Q9M3C6 46-277) AYIEKPNSFSTFANKVIGSLPVIGLLARIISDEGGVGRDLVDFAEFRKRVGNKCTPDDSRAFYEFQQRRGKAGEPLYVLLCCWVAAVGAGLLKSEEILEGVTRVSISNDLEFEEQNFIALMTEARQRRAKLNIDAPTIPMELRVEKALEGIYACCFRRGLIEEEDEKLLKVMLIAVFPSVEKSEIERIIKEKATRVEEGGEEENVMAKRLPKEAIQMQMKDLEFLQQQNIES |
| no binding | TRANSLOCASE OF THE OUTER MITOCHONDRIAL MEMBRANE 40 (TOM40) (protein, UniProt Q9LHE5 1-309) MADLLPPLTAAQVDAKTKVDEKVDYSNLPSPVPYEELHREALMSLKSDNFEGLRFDFTRALNQKFSLSHSVMMGPTEVPAQSPETTIKIPTAHYEFGANYYDPKLLLIGRVMTDGRLNARLKADLTDKLVVKANALITNEEHMSQAMFNFDYMGSDYRAQLQLGQSALIGATYIQSVTNHLSLGGEIFWAGVPRKSGIGYAARYETDKMVASGQVASTGAVVMNYVQKISDKVSLATDFMYNYFSRDVTASVGYDYMLRQARVRGKIDSNGVASALLEERLSMGLNFLLSAELDHKKKDYKFGFGLTVG |
